Data on 42 sequences can be found in publication PMC7819943, “Rice protein-binding microarrays: a tool to detect cis-acting elements near promoter regions in rice”.

Chains of the proteins cited; added tags and fusions are not shown.
UniProt Q0JBA9, entry or part of it: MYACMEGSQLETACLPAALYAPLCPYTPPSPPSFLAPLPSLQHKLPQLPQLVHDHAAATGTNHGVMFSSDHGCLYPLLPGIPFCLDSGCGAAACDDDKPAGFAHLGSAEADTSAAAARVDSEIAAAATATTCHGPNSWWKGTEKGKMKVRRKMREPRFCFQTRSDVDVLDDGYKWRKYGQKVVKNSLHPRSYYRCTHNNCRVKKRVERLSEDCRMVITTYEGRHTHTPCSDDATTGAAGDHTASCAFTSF

The list shows a part of the results.

The target in this assay is OsWRKY34 (Oryza sativa, UniProt Q0JBA9 1-250). Kind of assay: protein-binding microarray (RPBM); PBS, 2% BSA, 51.3 ng/ul salmon testes DNA, 50 uM zinc acetate, 200 nM TF, 25 C, 1 h; high values mean tight binding. The conditions noted are these: protein: recombinant; tags: N-terminal polyhistidine and DsRed monomer fusion (pET32a); label: CyDye5-dUTP incorporated in the synthesized complementary strand; 3' TTTTT single-stranded linker to array surface; dsDNA, one strand shown. In short, it runs like this: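 Transcription factors were each fused at the N-terminus to a polyhistidine tag plus DsRed and expressed in E. coli BL21-CodonPlus before Ni–NTA purification. Binding to a double-stranded custom Agilent array was carried out with 200 nM protein at 25 °C for 1 h in PBS, 2% BSA, salmon testes DNA and 50 µM zinc acetate. The binding signal is per-feature fluorescence intensity, in arbitrary units, on an Axon 4000B scanner.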
Take “ATGCTATACCTACGGTTTCGTTTTTTCTACTTTCTAGCATCGGAGTCACCTAGTGCAG”: the binding signal is 10900 fluorescence intensity (a.u.).

Take “CCCCATTTCGCCTTCTGCTCCGGTGAGCTCCGATCTGACTCGGAGTCACCTAGTGCAG”: the binding signal is 9310 fluorescence intensity (a.u.). Under “AGATGCTACTTTGATCAACCTGCGCCGTGCTGTAGTCCAACGGAGTCACCTAGTGCAG” stands 8170 fluorescence intensity (a.u.); under “TGACTATACACCTTCAATTGGTTCATCCTTCACTATCTCTCGGAGTCACCTAGTGCAG”, 9440 fluorescence intensity (a.u.); under “GCTTTTCCGCCCATAGATTCCCTTTTCCCGGCCCAATTCCCGGAGTCACCTAGTGCAG”, 8180 fluorescence intensity (a.u.).

Regarding “ACGAAGCCGGCGCCGTCGTTCTCTTTCTCACGTCGCCGTCCGGAGTCACCTAGTGCAG”, the binding signal was 9200 fluorescence intensity (a.u.).

For “AACACCATCCATGCTGTCGAGTATCAAAGGCTTCTTGTTCCGGAGTCACCTAGTGCAG”, the binding signal was 9960 fluorescence intensity (a.u.). Under “TGGTTGGTTTTTGCGAAATTTTCTGTGATTTCGAGATAGGCGGAGTCACCTAGTGCAG” stands 15600 fluorescence intensity (a.u.). For “GAAAGCAGCGGCGCGGGGTTTTCGAGTGGGTTTGGGGATACGGAGTCACCTAGTGCAG”, the binding signal was 10500 fluorescence intensity (a.u.). Under “CTTCTTCTCACGTCTCTCTCTCTGAATCCAGATTTTTTTTCGGAGTCACCTAGTGCAG” stands 8590 fluorescence intensity (a.u.); under “GCTCGTTGCCATGGTCTTCCTTGTCAATCCAACCTGCATCCGGAGTCACCTAGTGCAG”, 8890 fluorescence intensity (a.u.). Under “CGCTGTTGATTCATATGGCTTCTTTTGGTCTTCTGCTCTTCGGAGTCACCTAGTGCAG” stands 8580 fluorescence intensity (a.u.). Under “TAAGTATTGTTTTCTTTTCTCTTTATTCTCTTGCGTCTTCCGGAGTCACCTAGTGCAG” stands 9520 fluorescence intensity (a.u.); under “ATATTTTTTCTGATGTTTTGGGGCTTTTCTAGTCGTTATACGGAGTCACCTAGTGCAG”, 12300 fluorescence intensity (a.u.). On to “GTTGACTCGCACTTTTTGTAATTATGTGTTACATGGTTTCCGGAGTCACCTAGTGCAG”, for which the binding signal was 8810 fluorescence intensity (a.u.). Under “TAACTTCTTGCTGAACCACGTTTGATCCTGTTATCAATTTCGGAGTCACCTAGTGCAG” stands 8970 fluorescence intensity (a.u.); under “AAATAATCTGTCTTCTATTCTTCGTGTTCCTTTTTTGAAACGGAGTCACCTAGTGCAG”, 8560 fluorescence intensity (a.u.); under “TACTAGTAGCTTCTCTCTCTCTCTCTTCTTCTTCCTCGCTCGGAGTCACCTAGTGCAG”, 9760 fluorescence intensity (a.u.). Under “TCCGTCGTCTTCCTTTACTGGTTCTATGTCTTCTCAGTAACGGAGTCACCTAGTGCAG” stands 10800 fluorescence intensity (a.u.). Under “CTAACCAGGTGATAACTTGTCCTTGCAAATCACTATCATCCGGAGTCACCTAGTGCAG” stands 8370 fluorescence intensity (a.u.); under “CGTTATCTCACGACGCCGTCCCGCCACGTCTCGCCGTTTCCGGAGTCACCTAGTGCAG”, 8590 fluorescence intensity (a.u.); under “CGATATTCCCGGTTTTGTGGTTGGAGGTTATGAATGATACCGGAGTCACCTAGTGCAG”, 9980 fluorescence intensity (a.u.). For “TGTATTTGACTGTTACTGCTTTTGGATTTTGTTTCATTTTCGGAGTCACCTAGTGCAG”, the binding signal was 17500 fluorescence intensity (a.u.). Under “GCTATAAATAGGCAGGTTTGGATAGGTATGGGGCTAACTACGGAGTCACCTAGTGCAG” stands 9660 fluorescence intensity (a.u.); under “TTTGCCAGTGTCCCGATTCAGATATTAGGTGTCAAAATCTCGGAGTCACCTAGTGCAG”, 8630 fluorescence intensity (a.u.); under “CCCGCATTTAAAACTTTAATCTCGATACTTAATTGTCTGCCGGAGTCACCTAGTGCAG”, 8120 fluorescence intensity (a.u.). Under “CCGGGATACTATAAAGCTTTTCTTGCTACTAAGATCCTACCGGAGTCACCTAGTGCAG” stands 8860 fluorescence intensity (a.u.); under “GGTTGTGGTTAATTTTTAAAATATAACATTTCATTTTTTTCGGAGTCACCTAGTGCAG”, 8020 fluorescence intensity (a.u.); under “CCTGCCTATATTTTTTTTCTTGTCTATAGGTATACTCAGGCGGAGTCACCTAGTGCAG”, 9640 fluorescence intensity (a.u.). Turning to “GCATGAGTAGGGGATGGCATTAAAACAGGTTGGTCAGGTGCGGAGTCACCTAGTGCAG”, the binding signal is 8920 fluorescence intensity (a.u.). Under “GGGCTCAAAATAGACTTATTCCATTCAGAGCTGTTTGGGGCGGAGTCACCTAGTGCAG” stands 8060 fluorescence intensity (a.u.). Under “CATTTTTGGTCTTTTCTGTTACCTTCTGCTAATATATTTCCGGAGTCACCTAGTGCAG” stands 14400 fluorescence intensity (a.u.); under “TTGTTATTTTTGTTGCAACTTATAGAAGTTCAATTGGTCTCGGAGTCACCTAGTGCAG”, 8030 fluorescence intensity (a.u.).

Consider “TCCACTCTCTGACTTTAATATTTACCACACGTTTGCAACTCGGAGTCACCTAGTGCAG”, for which the binding signal was 8090 fluorescence intensity (a.u.). Take “AAACGCGCCGGCCTCGTCGTCCGACCGTCACTTGCATTGTCGGAGTCACCTAGTGCAG”: the binding signal is 8530 fluorescence intensity (a.u.). Under “TCTAGATTTGATCATTTTGACCTCTTGCTCCGTTAGATCTCGGAGTCACCTAGTGCAG” stands 10300 fluorescence intensity (a.u.); under “CCATTTGGTGCGCCGTCGCCGTTGTCCTGCCTTCGCCGCCCGGAGTCACCTAGTGCAG”, 13800 fluorescence intensity (a.u.); under “ATTCTTCATTTATCAGGGGACAGTATAGCAACACTTCTCTCGGAGTCACCTAGTGCAG”, 8740 fluorescence intensity (a.u.).

As to “CGTCTCGTTTTATGTTCACTTATTTTTATTATCATTTTTACGGAGTCACCTAGTGCAG”, the binding signal was 10900 fluorescence intensity (a.u.). Take “AGTATAATAAGTGTTTCTTTTCACAACCTTTCCTTGTGTACGGAGTCACCTAGTGCAG”: the binding signal was 8950 fluorescence intensity (a.u.). Under “GCCAAACAACACATTATGTACATTTTTTTCCTATATAAAACGGAGTCACCTAGTGCAG” stands 8120 fluorescence intensity (a.u.); under “CTCTCTACTTTCTTTCTTTGACTTGTGGCACACACCTCTACGGAGTCACCTAGTGCAG”, 14200 fluorescence intensity (a.u.).
